System: Mus musculus
Assay: Narcotic agonist activity using acetic acid induced writhing in the mouse upon subcutaneous administration
Type: functional
Details: sc
Method in brief: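 Mouse acetic acid writhing test with subcutaneous dosing. Salt forms were given in distilled water; free bases were dissolved by adding 1 N HCl and then diluted.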

Question: For `CN1CC[C@]23c4c5ccc(O)c4O[C@H]2[C@@H](O)C=C[C@H]3[C@H]1C5` [MORPHINE], which ED50 is on record?
Answer: 2.1 µmol/kg
